The text below walks through data of PubChem BioAssay AID330 (DTP/NCI, 2004).

The structures appear in SMILES notation. The list does not hold the whole screen: it gathers tests that were run many times, whatever their T/C, doses with no T/C, and many T/C values between a quarter and a half above the control. Other doses and runs of a compound stand elsewhere. T/C is the treated group as % of the vehicle group. Some entries give survivors of the animals treated and no T/C: the source holds a T/C of zero for them, seemingly a mark for toxic or unscored doses. Some doses without a T/C left all or most animals alive at the check, yet need not have been tolerated: survival well below the control is almost never listed, so the zero probably covers shortened survival too. Counts of survivors are from the toxicity check (mostly the fifth day) where no day follows; animals may have died later. Schedule codes are those of the source, read here as Q, the interval in days (D) or hours (H), X, the number of doses. Some entries hold several experiments; the results are listed from low to high. Where survival is the endpoint, this PubChem deposit counts one and a half times the control or more as active, and values a quarter to a half above the control carry no call in these data; other NCI protocols may use other cut-offs. Some T/C values carry the count of animals alive at the toxicity check (mostly the fifth day); without a count, all were alive then.

For the experiment, the system named is P388 leukemia ip, CD2F1 mice, survival T/C. Kind of experiment: NCI In Vivo Anticancer Drug Screen. Data for tumor model P388 Leukemia (intraperitoneal) in CD2F1 (CDF1) mice. The settings on record: T/C endpoint: median survival time, higher T/C = longer survival.
Setting [1] is: dose: 200.0 mg/kg/injection, schedule: Q01DX009 (ip), vehicle: saline.
[2] abbreviates: dose: 12.5 mg/kg/injection, schedule: Q01DX009 (ip), vehicle: saline with Tween-80.
Where [3] appears, read: dose: 25.0 mg/kg/injection, schedule: Q01DX009 (ip), vehicle: saline with Tween-80.
Where [4] appears, read: dose: 100.0 mg/kg/injection, schedule: Q01DX009 (ip), vehicle: saline with Tween-80.
Setting [5] is: dose: 240.0 mg/kg/injection, schedule: Q01DX005 (ip), vehicle: Klucel (hydroxypropylcellulose) (HPC).
The mark [6] stands for this setting: dose: 50.0 mg/kg/injection, schedule: Q01DX009 (ip), vehicle: saline with Tween-80.
The mark [7] stands for this setting: dose: 200.0 mg/kg/injection, schedule: Q01DX009 (ip), vehicle: saline with Tween-80.
[8] abbreviates: dose: 60.0 mg/kg/injection, schedule: Q01DX005 (ip), vehicle: saline.
[9] abbreviates: dose: 120.0 mg/kg/injection, schedule: Q01DX005 (ip), vehicle: saline.
[10] abbreviates: dose: 240.0 mg/kg/injection, schedule: Q01DX005 (ip), vehicle: saline.
The mark [11] stands for this setting: dose: 100.0 mg/kg/injection, schedule: Q01DX009 (ip), vehicle: saline.
The mark [12] stands for this setting: dose: 50.0 mg/kg/injection, schedule: Q01DX009 (ip), vehicle: saline.
Setting [13] is: dose: 25.0 mg/kg/injection, schedule: Q01DX009 (ip), vehicle: saline.

On to `COC(=O)c1ccc(N=NN(C)C)cc1`, for which, for the setting “dose: 100.0 mg/kg/injection, schedule: Q01DX009 (ip), vehicle: suspension in saline”, the survivor count is 6 of 6. Further, the T/C under setting [1] was 141 % of control [5 of 6 alive].

For the compound `COc1ccc2nc3cc(Cl)ccc3c(NCCNCCNCCNc3c4ccc(Cl)cc4nc4ccc(OC)cc34)c2c1`, the T/C was 137 % of control under setting [2] and 137 % of control under setting [3]. In addition, under setting [4], the survivor count was 4 of 6.

Regarding `COC(=O)C1CC(C(=O)OC)c2nc3ccccc3nc21` (stereo not given), under setting [5], the survivor count is 0 of 6.

On to `O=NN(CCCl)C(=O)OCC(Cl)(Cl)Cl`, for which the T/C (dose: 12.5 mg/kg/injection, schedule: Q01DX001 (ip), vehicle: saline with Tween-80) is 127 % of control. Moreover, the survivor count is 4 of 5 and 5 of 5 (dose: 100.0 mg/kg/injection, schedule: Q01DX001 (ip), vehicle: saline with Tween-80); 5 of 5 (dose: 150.0 mg/kg/injection, schedule: Q01DX001 (ip), vehicle: saline with Tween-80).

On to `COc1cc(N(CC(C)Br)CC(C)Br)ccc1N=Nc1ccccc1C(=O)O` (stereo not given), for which the T/C was 146 % of control (dose: 1.56 mg/kg/injection, schedule: Q01DX009 (ip), vehicle: saline with Tween-80); 175, 191, 220, 236 % of control (dose: 6.25 mg/kg/injection, schedule: Q01DX009 (ip), vehicle: saline with Tween-80); 120, 230, 262 % of control [5 of 6 alive] under setting [2]. Moreover, the survivor count is, setting by setting: under setting [2], 5 of 6; under setting [3], 2 of 6 and 5 of 6; under setting [6], 0 of 6; under setting [4], 0 of 6; under setting [7], 0 of 6.

`CC1CCCC(C2CC3CCCCC3C(N)[N-]2)[N-]1.CC1CCCC(C2CC3CCCCC3C(N)[N-]2)[N-]1.O=[N+]([O-])O.[Cu+2]` (stereo not given): the survivor count (dose: 400.0 mg/kg/injection, schedule: Q04DX002 (ip), vehicle: suspension in saline) is 0 of 6.

`Clc1ccccc1C=Nc1ccccc1`: the T/C is 131 % of control under setting [6]; 125 [5 of 6 alive] and 138 % of control under setting [4]. Further, the survivor count under setting [7] is 1 of 6 and 2 of 6.

As for `CN(C)P(=O)(Oc1occc1C(C)(C)O)N(C)C`, the survivor count reads like this: (dose: 30.0 mg/kg/injection, schedule: Q01DX005 (ip), vehicle: saline) 0 of 6; under setting [8], 0 of 6; under setting [9], 0 of 6; under setting [10], 0 of 6.

For the compound `Cc1ccoc1OP(=O)(N(C)C)N(C)C`, the survivor count runs as follows: under setting [8], 4 of 6; under setting [9], 0 of 6; under setting [10], 0 of 6.

Regarding `Cc1ccc2nc3sc(=O)sc3nc2c1`, the survivor count under setting [5] is 3 of 6.

In the case of `CC[C@H]1C[C@H]2CN(CCc3c([nH]c4ccccc34)[C@@](C(=O)OC)(c3cc4c(cc3OC)N(C=O)[C@H]3[C@@](O)(C(=O)OC)[C@H](OC(C)=O)[C@]5(CC)CCCN6CC[C@]43[C@@H]65)C2)C1`, the T/C (dose: 0.5 mg/kg/injection, schedule: Q01DX001 (ip), vehicle: water) is 126 % of control; the T/C (dose: 1.0 mg/kg/injection, schedule: Q01DX001 (ip), vehicle: water) was 145 and 147 % of control. The survivor count is, setting by setting: (dose: 8.0 mg/kg/injection, schedule: Q01DX001 (ip), vehicle: water) 2 of 6 and 4 of 6; (dose: 16.0 mg/kg/injection, schedule: Q01DX001 (ip), vehicle: water) 0 of 6.

`NC1(c2ccccc2)CCCCC1`: under setting [11], the survivor count is 0 of 6.

For the compound `Cn1c(=O)c2c(ncn2C)n(C)c1=O.[Cl][Pt]([Cl])[Cl]`, the T/C runs as follows: (dose: 25.0 mg/kg/injection, schedule: Q01DX005 (ip), vehicle: water) 133 % of control; (dose: 50.0 mg/kg/injection, schedule: Q01DX005 (ip), vehicle: water) 132 % of control; (dose: 100.0 mg/kg/injection, schedule: Q01DX005 (ip), vehicle: water) 145 % of control. Moreover, the survivor count (dose: 200.0 mg/kg/injection, schedule: Q01DX005 (ip), vehicle: water) is 0 of 6.

With `COc1ccc2c(c1)OC(C)(C)C(c1ccccc1)=C2c1ccc2c(c1)NCCO2`, the survivor count by setting is: (dose: 60.0 mg/kg/injection, schedule: Q01DX005 (ip), vehicle: saline with Tween-80) 6 of 6; (dose: 120.0 mg/kg/injection, schedule: Q01DX005 (ip), vehicle: saline with Tween-80) 6 of 6; (dose: 240.0 mg/kg/injection, schedule: Q01DX005 (ip), vehicle: saline with Tween-80) 6 of 6.

With `O=C1c2ccccc2C(=O)N1CCCN1CCOCCOCCN(CCCN2C(=O)c3ccccc3C2=O)CCOCCOCC1`, the survivor count (dose: 200.0 mg/kg/injection, schedule: Q04DX002 (ip), vehicle: saline + Tween-80 + alcohol) is on record as 1 of 6 and the survivor count (dose: 400.0 mg/kg/injection, schedule: Q04DX002 (ip), vehicle: saline + Tween-80 + alcohol) was 0 of 6.

On to `O=[N+]([O-])c1ccccc1-c1ccccc1N=Cc1ccccc1`, for which the survivor count is listed as 6 of 6 under setting [12], 5 of 6 under setting [11] and 6 of 6 under setting [1].

With `CCn1c(=N)sc2nc3ccccc3n2c1=O`, the survivor count under setting [5] is 1 of 6.

For the compound `CCO/C=N/NC(=O)CNC(=O)C=[N+]=[N-]`, the survivor count by setting is: (dose: 270.0 mg/kg/injection, schedule: Q01DX009 (ip), vehicle: water) 5 of 6; (dose: 400.0 mg/kg/injection, schedule: Q01DX009 (ip), vehicle: water) 3 of 6; (dose: 600.0 mg/kg/injection, schedule: Q01DX009 (ip), vehicle: water) 0 of 6.

Take `CN(C)c1ccc(/C=C/c2ccncc2)cc1`: under setting [2], the survivor count is 0 of 6.

For the compound `COc1ccc2[nH]c(C)cc2c1CN`, the survivor count runs as follows: (dose: 12.5 mg/kg/injection, schedule: Q01DX009 (ip), vehicle: saline) 6 of 6; under setting [13], 0 of 6; under setting [12], 0 of 6; under setting [11], 0 of 6; under setting [1], 0 of 6.

As for `CCCC(=O)N1CCCCC1CC` (stereo not given), the survivor count (dose: 400.0 mg/kg/injection, schedule: Q01DX001 (ip), vehicle: saline) was 3 of 6.

Turning to `CCOC(=O)N1C(=O)C2C3C=CC(C2C1=O)C1C2C(=O)N(C(=O)OCC)C(=O)C2C31` (stereo not given), the T/C is 135 % of control (dose: 50.0 mg/kg/injection, schedule: Q01DX009 (ip), vehicle: Klucel (hydroxypropylcellulose) (HPC)) and 145 % of control (dose: 100.0 mg/kg/injection, schedule: Q01DX009 (ip), vehicle: Klucel (hydroxypropylcellulose) (HPC)). Besides, the survivor count (dose: 200.0 mg/kg/injection, schedule: Q01DX009 (ip), vehicle: Klucel (hydroxypropylcellulose) (HPC)) was 0 of 6 and 6 of 6.

Consider `C/C(=N\NC(=S)N1CCCC1)c1cnccn1`, for which the survivor count by setting is: (dose: 50.0 mg/kg/injection, schedule: Q01DX005 (ip), vehicle: saline with Tween-80) 1 of 6; (dose: 100.0 mg/kg/injection, schedule: Q01DX005 (ip), vehicle: saline with Tween-80) 0 of 6; (dose: 200.0 mg/kg/injection, schedule: Q01DX005 (ip), vehicle: saline with Tween-80) 0 of 6.

In the case of `COc1cc(C)c(/C(=N/O)n2nnc(-c3ccc(C)cc3)n2)c(C)c1`, for the setting “dose: 400.0 mg/kg/injection, schedule: Q01DX001 (ip), vehicle: saline with Tween-80”, the survivor count is recorded as 6 of 6.

As to `Nc1ccc(O)cc1O`, the survivor count under setting [13] is 3 of 6; the survivor count under setting [12] is given as 1 of 6; the survivor count under setting [11] is recorded as 0 of 6; the survivor count under setting [1] was 0 of 6; the survivor count (dose: 400.0 mg/kg/injection, schedule: Q01DX009 (ip), vehicle: saline) is reported as 0 of 6; the survivor count (dose: 600.0 mg/kg/injection, schedule: Q01DX009 (ip), vehicle: saline) is 0 of 6.
